No constants are given. Whether binding was seen depends on the method and setting. In cells and extracts the contact can be indirect.
Biological target: DNMT1 (DNA methyltransferase) (mouse (endogenous in iGB cells)) (UniProt P13864)
Assay: co-IP; endogenous proteins from iGB cells (day 3 and day 6 cultures) lysed in RIPA buffer (150 mM NaCl, 1.0% IGEPAL, 0.5% sodium deoxycholate, 0.1% SDS, 50 mM Tris, pH 8.0); 3 ug anti-TET2 or anti-DNMT1 antibody overnight at 4 degrees, Protein A/G magnetic beads; immunoblot for AID

Sequences of proteins named here, by UniProt entry; tags and fusion partners are left off.
UniProt P13864: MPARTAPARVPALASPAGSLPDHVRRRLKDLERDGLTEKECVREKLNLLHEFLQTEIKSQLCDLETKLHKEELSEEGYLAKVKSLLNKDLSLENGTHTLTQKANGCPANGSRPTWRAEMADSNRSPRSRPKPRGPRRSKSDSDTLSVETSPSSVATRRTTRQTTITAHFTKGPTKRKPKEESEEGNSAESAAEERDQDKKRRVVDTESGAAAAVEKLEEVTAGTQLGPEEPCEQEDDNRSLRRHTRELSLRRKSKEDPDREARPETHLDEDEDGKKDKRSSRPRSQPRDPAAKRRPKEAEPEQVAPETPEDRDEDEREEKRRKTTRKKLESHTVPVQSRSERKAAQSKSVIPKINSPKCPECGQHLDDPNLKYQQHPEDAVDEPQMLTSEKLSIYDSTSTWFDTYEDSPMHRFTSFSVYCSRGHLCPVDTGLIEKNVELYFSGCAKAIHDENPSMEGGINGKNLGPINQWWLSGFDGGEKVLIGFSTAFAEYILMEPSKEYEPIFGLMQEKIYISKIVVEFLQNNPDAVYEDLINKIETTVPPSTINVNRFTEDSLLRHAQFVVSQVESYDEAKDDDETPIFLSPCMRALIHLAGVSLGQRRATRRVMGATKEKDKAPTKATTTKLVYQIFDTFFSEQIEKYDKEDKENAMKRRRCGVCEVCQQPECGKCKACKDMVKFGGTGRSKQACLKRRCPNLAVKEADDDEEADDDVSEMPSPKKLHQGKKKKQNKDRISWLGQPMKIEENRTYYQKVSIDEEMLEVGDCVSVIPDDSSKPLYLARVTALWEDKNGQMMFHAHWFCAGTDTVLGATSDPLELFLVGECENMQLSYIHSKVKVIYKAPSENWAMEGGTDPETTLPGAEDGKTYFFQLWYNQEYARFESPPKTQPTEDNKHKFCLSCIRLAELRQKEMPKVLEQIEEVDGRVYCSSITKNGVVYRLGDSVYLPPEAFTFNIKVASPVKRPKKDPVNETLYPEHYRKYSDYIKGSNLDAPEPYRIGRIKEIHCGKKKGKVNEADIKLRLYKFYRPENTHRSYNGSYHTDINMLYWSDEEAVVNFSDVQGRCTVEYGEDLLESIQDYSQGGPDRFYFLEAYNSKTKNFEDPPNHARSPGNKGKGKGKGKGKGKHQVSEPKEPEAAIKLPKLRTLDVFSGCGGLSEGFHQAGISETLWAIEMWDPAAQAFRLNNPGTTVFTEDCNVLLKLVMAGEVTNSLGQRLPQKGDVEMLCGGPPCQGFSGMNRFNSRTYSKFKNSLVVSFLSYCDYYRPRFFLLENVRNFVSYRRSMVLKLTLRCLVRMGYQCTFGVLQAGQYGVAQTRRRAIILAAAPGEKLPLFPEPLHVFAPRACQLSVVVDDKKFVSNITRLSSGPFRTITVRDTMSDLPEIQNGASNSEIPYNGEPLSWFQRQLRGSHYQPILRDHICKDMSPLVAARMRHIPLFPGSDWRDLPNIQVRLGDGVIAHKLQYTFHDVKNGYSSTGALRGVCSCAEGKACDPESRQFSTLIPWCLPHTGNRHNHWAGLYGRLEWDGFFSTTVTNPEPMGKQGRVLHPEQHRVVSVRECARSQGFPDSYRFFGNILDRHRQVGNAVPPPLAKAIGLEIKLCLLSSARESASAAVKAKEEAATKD
UniProt Q9WVE0: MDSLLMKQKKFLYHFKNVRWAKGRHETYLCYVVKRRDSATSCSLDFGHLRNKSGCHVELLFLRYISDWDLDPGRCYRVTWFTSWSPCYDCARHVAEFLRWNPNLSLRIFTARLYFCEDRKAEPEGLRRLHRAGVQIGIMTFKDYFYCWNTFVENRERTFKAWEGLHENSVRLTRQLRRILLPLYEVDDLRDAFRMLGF

binding: no binding
Substance: activation-induced cytidine deaminase (AID), wild type (from UniProt Q9WVE0 1-198) (enzyme)
